Assay results reported in paper PMC7819943, “Rice protein-binding microarrays: a tool to detect cis-acting elements near promoter regions in rice”.
This is one part of the list.

By UniProt entry, the sequences of proteins in these tests, tags left out.
UniProt Q0JBA9, entry or part of it: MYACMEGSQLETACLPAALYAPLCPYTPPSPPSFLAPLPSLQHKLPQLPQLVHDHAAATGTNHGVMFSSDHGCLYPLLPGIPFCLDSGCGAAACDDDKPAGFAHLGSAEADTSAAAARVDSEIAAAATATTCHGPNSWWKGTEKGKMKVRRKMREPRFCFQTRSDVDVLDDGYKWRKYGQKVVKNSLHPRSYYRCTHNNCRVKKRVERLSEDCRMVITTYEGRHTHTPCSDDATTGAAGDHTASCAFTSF

Target: OsWRKY34 (Oryza sativa, UniProt Q0JBA9 1-250)
Assay: protein-binding microarray (RPBM); PBS, 2% BSA, 51.3 ng/ul salmon testes DNA, 50 uM zinc acetate, 200 nM TF, 25 C, 1 h; high values mean tight binding
Details: protein: recombinant; tags: N-terminal polyhistidine and DsRed monomer fusion (pET32a); label: CyDye5-dUTP incorporated in the synthesized complementary strand; 3' TTTTT single-stranded linker to array surface; dsDNA, one strand shown
In short: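 An Axon 4000B scanner gave the binding signal as per-feature fluorescence intensity in arbitrary units. This followed washing of a custom Agilent array that had been incubated for 1 h at 25 °C with 200 nM protein in PBS, 2% BSA, salmon testes DNA and 50 µM zinc acetate. The proteins were transcription factors fused at the N-terminus to polyhistidine and DsRed, expressed in E. coli BL21-CodonPlus and purified on Ni–NTA.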

Row | Sequence | binding signal
1 | GAGTGCCTATTCAATTGCCTTTTGTTTGTCAACGTTTCTCCGGAGTCACCTAGTGCAG | 8080 fluorescence intensity (a.u.)
2 | GTCATTTCTATGTTTGCAATTATCTATTTTACATTTACATCGGAGTCACCTAGTGCAG | 9200 fluorescence intensity (a.u.)
3 | ATATACGGCCGCCTCGATCGAGCTCGCACCACACTATCTTCGGAGTCACCTAGTGCAG | 8160 fluorescence intensity (a.u.)
4 | ATATAGATGGTAATGGGGTACAAATGCTTCACACTGAAAACGGAGTCACCTAGTGCAG | 8270 fluorescence intensity (a.u.)
5 | CGCCTCGTTCCGTCGCCCGCCCTGCTCCACCGGCCGGCTACGGAGTCACCTAGTGCAG | 9790 fluorescence intensity (a.u.)
6 | CAGCCCATGTTTTATCTGTTTTTTTAGTGTGTTGGCCCAGCGGAGTCACCTAGTGCAG | 8290 fluorescence intensity (a.u.)
7 | CGCCATGATCTCGCTCGCCACCACCCGCCTCTCATGGACTCGGAGTCACCTAGTGCAG | 9800 fluorescence intensity (a.u.)
8 | ATTTTCAGGCAGCTCACCTGGTCGACTTCCACACCGCATCCGGAGTCACCTAGTGCAG | 11400 fluorescence intensity (a.u.)
9 | AAAACCCTCCACGTCAGCATATCAACATCCAGGCCCAACGCGGAGTCACCTAGTGCAG | 8670 fluorescence intensity (a.u.)
10 | TACATACATACATACATACATACATATATATATATATATACGGAGTCACCTAGTGCAG | 8200 fluorescence intensity (a.u.)
11 | ACCCTCATCCATACTGCCATCACCTCTTCATCCTGCATACCGGAGTCACCTAGTGCAG | 14000 fluorescence intensity (a.u.)
12 | TCTGATGGCGCGCACCACGGACGTCTTCATCGCCACCTTCCGGAGTCACCTAGTGCAG | 9700 fluorescence intensity (a.u.)
13 | CCTCTCATTGTCATGTATTCTACTTTTACTTGTGAGGGGTCGGAGTCACCTAGTGCAG | 10100 fluorescence intensity (a.u.)
14 | TGCACTCTTGAGCACTCCCAATTTTGTCATTGCCATACAACGGAGTCACCTAGTGCAG | 11600 fluorescence intensity (a.u.)
15 | ACATATTGGTCGCATTGATAGTTTTAATTTTTTTCTTCTACGGAGTCACCTAGTGCAG | 9560 fluorescence intensity (a.u.)
16 | TTTGAGGAAGTTGCATGGTTGAATGTTGGTGGTTGGTTATCGGAGTCACCTAGTGCAG | 8740 fluorescence intensity (a.u.)
17 | ACCCACCCAGTCGATTCATGACAGCTCCAGTTATAATTGCCGGAGTCACCTAGTGCAG | 9190 fluorescence intensity (a.u.)
18 | CGCCGTCGTCATCATTTGTCAATCAGTGACAGTCACGAGACGGAGTCACCTAGTGCAG | 8410 fluorescence intensity (a.u.)
19 | CTGAACCATCCGACTCACCACCGGTATTTCTCGGCCATCTCGGAGTCACCTAGTGCAG | 8640 fluorescence intensity (a.u.)
20 | AGGTCCAGCTTGTTAAGGGTAGTATGTCTAGGGGTATTTTCGGAGTCACCTAGTGCAG | 14000 fluorescence intensity (a.u.)
21 | CGTTGGAACGGTATACCGCTACGTAGTTTCCTCTAACACACGGAGTCACCTAGTGCAG | 8230 fluorescence intensity (a.u.)

Reprinted at random: two entries already listed
Row | Sequence | binding signal
18 | CGCCGTCGTCATCATTTGTCAATCAGTGACAGTCACGAGACGGAGTCACCTAGTGCAG | 8410 fluorescence intensity (a.u.)
13 | CCTCTCATTGTCATGTATTCTACTTTTACTTGTGAGGGGTCGGAGTCACCTAGTGCAG | 10100 fluorescence intensity (a.u.)

(further entries)

Row | Sequence | binding signal
22 | TGTTGTTGACTTTTAAACACATGTTTGATCATTTGTCTTACGGAGTCACCTAGTGCAG | 14600 fluorescence intensity (a.u.)
23 | TCTCTCGTTCTCTCTATTTCTCCCTGTTTTCCTGTGTCTTCGGAGTCACCTAGTGCAG | 10100 fluorescence intensity (a.u.)
24 | CTCATCCACCCATCCTCATCCTTATCCTCACTCTCTCCTCCGGAGTCACCTAGTGCAG | 9970 fluorescence intensity (a.u.)
25 | CATTATACCTTTATCCCCTTCATTTCTGTTCCATTTCTCACGGAGTCACCTAGTGCAG | 11000 fluorescence intensity (a.u.)
26 | CACCTGCATGACGACTTAAATGTTTATGGTGATATCTTCTCGGAGTCACCTAGTGCAG | 8470 fluorescence intensity (a.u.)
27 | TCCTCCGACGACAACCAGTCCCGCTTCTTCTTCTCCGTCCCGGAGTCACCTAGTGCAG | 8230 fluorescence intensity (a.u.)
28 | CTCCGCTTTATTATACCTGCCGCTAGCTCCTCCTCCGATGCGGAGTCACCTAGTGCAG | 8040 fluorescence intensity (a.u.)
29 | CCACTTGCTCTCACTACCGACCACTGCTGATGCTCCTCTTCGGAGTCACCTAGTGCAG | 8940 fluorescence intensity (a.u.)
30 | GACGATCACATCACCCGCTCCATTTGCAACGGAGCTCCTTCGGAGTCACCTAGTGCAG | 12500 fluorescence intensity (a.u.)
31 | ATCCTAGTTATTTCAAAGGTATATTGCTTGCATTGTTTTGCGGAGTCACCTAGTGCAG | 8240 fluorescence intensity (a.u.)
32 | ATCTGCTTTTATGTTTCTCTGCCTTCTTGGCATTTGTAGTCGGAGTCACCTAGTGCAG | 8040 fluorescence intensity (a.u.)
33 | GCTGCTTGCACCGTCGGCTTCCTTTCTCGCGCGCTCGCGACGGAGTCACCTAGTGCAG | 11500 fluorescence intensity (a.u.)
34 | TCCCACCTCCGAGATCCCCACCTCCACCATTTCTCTTTCTCGGAGTCACCTAGTGCAG | 9890 fluorescence intensity (a.u.)
35 | TATACTCACGCTATTTTACCCTTGAAACAGGACCATTCATCGGAGTCACCTAGTGCAG | 9380 fluorescence intensity (a.u.)
36 | ATTTACCATTAGACACTGCATATGTCCTATACTACATGTACGGAGTCACCTAGTGCAG | 8430 fluorescence intensity (a.u.)
37 | CATTCTCTTCTCAACCAATAACAACTCTTCCACCATTCACCGGAGTCACCTAGTGCAG | 9540 fluorescence intensity (a.u.)
38 | TAAACTTGTTTTTTTGGGTGGGGAACTTGGGATCTGAGGGCGGAGTCACCTAGTGCAG | 10900 fluorescence intensity (a.u.)
39 | GCTTGCAACGTTTGACCACTCGTCTTATTCAAATTTTTTTCGGAGTCACCTAGTGCAG | 12000 fluorescence intensity (a.u.)
40 | TGGCCGGAGCTAGGGTGGGTGGGTGGTTGGCCGCACCACCCGGAGTCACCTAGTGCAG | 8250 fluorescence intensity (a.u.)
41 | GGGGCAGTGTCATCTCAGCTAGCCATTTGTTTGGTTCCTACGGAGTCACCTAGTGCAG | 10900 fluorescence intensity (a.u.)
42 | AAATAAAAGTTCCTCACACGCACGCCCACGTCAGCGCATCCGGAGTCACCTAGTGCAG | 10300 fluorescence intensity (a.u.)
